Experimental data published in patent US20260072027A1, “Peptides And Method” (Queen Mary University of London, priority 2022, published 2026).

System: serum IgG autoantibodies
Assay: ELISA for autoantibody detection: serum antibody binding to native and oxPTM insulin peptides
Design: species or system human
Settings: type 1 diabetes vs healthy controls; in house modifications
Method: ELISA for autoantibody detection. The ELISA analysis of Nt-INS and oxPTM-INS autoantibodies was performed as previously described [18](detailed in ESM methods, ELISA assay for antibody detection).
Statistical analyses. Statistical analyses were performed using Prism Software 9.0 (GraphPad, San Diego, CA, USA). Cut-off points of positivity (binders) in the antibody ELISA for each peptide were defined by the mean of optical absorbance (O.D) of healthy controls to the corresponding Nt-INSP plus three times the standard error of the mean (SEM). Specificity and sensitivity were evaluated by receiver operating characteristic (ROC) curve analysis. Area under the curve (AUC) is reported as absolute value and was tested for equality according to DeLong et al. Differences in antibody levels and T-cell stimulation indices (SI) between groups were tested by the One way ANOVA or Student's t-tests as appropriate. Correlation analyses were tested by Pearson or Spearman's test, as appropriate. Categorical analyses were performed by Chi-square or McNemar's tests, as appropriate. For each set of experiments, p values were adjusted for multiple comparison using the Holm-Sidak's test. Hierarchical cluster and Principal Component Analysis (PCA) was done using Clustvis software (https://biit.cs.ut.ee/clustvis/) and Prism Software 9.0, respectively.
Antibody reactivity of type 1 diabetes serum against the candidate oxPTM-INSP. Identified peptide candidates were synthesised and exposed to either HOCl or ^●OH to generate oxPTM-INSPs that were first assessed by TOF-MS/ES+TIC to confirm modification (FIG. 17). Antibody response against native INSPs (Nt-INSPs) and oxPTM-INSPs was evaluated by ELISA using sera from Study cohort 1.
ESM Methods ELISA assay for antibody detection. The ELISA analysis of native (Nt-INS) and modified insulin (oxPTM-INS) was performed as previously described. […] The optical density (O.D.) was measured at 450 nm using a GENios plate reader and Magellan software (TECAN, Dorset, UK).

Sequence | AUC (ROC)
ERGFFYTPKT [insulin B:21-30 native peptide] | 0.879
LVEALYLVCGERGFFYTPKT [insulin B:11-30 native peptide] | 0.730
SLYQLENYCN [insulin A:12-21 native peptide] | 0.648
